Source: patent publication US7157452B2, “Substituted 4,9-dihydrocyclopenta{imn}phenanthridine-5-ones derivatives thereof and their uses” (MGI GP, Inc., priority 2001, dated 2007)

Tested on: male Long-Evans rats
Experiment: Focal cerebral ischemia (right distal MCA cauterization with temporary bilateral CCA occlusion)
Format: in vivo
Details: for PaCO2 / arterial pH: arterial blood 30 min after MCA occlusion; for MABP Ischemia: average during occlusion; for MABP Steady State: just prior to occlusion; for relative blood flow in the right parietal cortex during occlusion, % of the baseline: laser Doppler, control 20.8±7.7%

O=C1NCCc2c(OCCCCN3CCCCC3)cccc21 [DPQ, 3,4-dihydro-5-[4-(1-piperidinyl)-butoxy]-1(2H)-isoquinolinone]
PaCO2 (5 mg/kg): 38.0 ± 2.8 mm Hg | arterial pH (5 mg/kg): 7.36 | MABP Ischemia (5 mg/kg): 91 ± 12 mm Hg | MABP Steady State (5 mg/kg): 78 ± 5 mm Hg | relative blood flow in the right parietal cortex during occlusion, % of the baseline (5 mg/kg): 13.7±7.4% | PaCO2 (10 mg/kg): 39.3 ± 5.2 mm Hg | arterial pH (10 mg/kg): 7.34 | MABP Ischemia (10 mg/kg): 90 ± 14 mm Hg | MABP Steady State (10 mg/kg): 80 ± 9 mm Hg | PaCO2 (20 mg/kg): 41.3 ± 2.8 mm Hg | arterial pH (20 mg/kg): 7.35 | MABP Ischemia (20 mg/kg): 91 ± 12 mm Hg | MABP Steady State (20 mg/kg): 79 ± 10 mm Hg | PaCO2 (40 mg/kg): 39.5 ± 4.7 mm Hg | arterial pH (40 mg/kg): 7.33 | MABP Ischemia (40 mg/kg): 88 ± 12 mm Hg | MABP Steady State (40 mg/kg): 78 ± 4 mm Hg | relative blood flow in the right parietal cortex during occlusion, % of the baseline (40 mg/kg): 19.3±11.2% | relative blood flow in the right parietal cortex during occlusion, % of the baseline (dose group not printed (n=7)): 21.4±7.7%
